In patent publication US20060229240A1 (GARDELL ET AL, published 2006):
Results are given in words; binding and its absence hold for the method and conditions named. Some entries that bind do so weakly or less than the wild type.

Amino acid sequences for entries named in this document (tags omitted). A change or cut given only in a name is not applied to a line headed by its entry. Residues count along the entry.
UniProt Q03431, residues 27-593: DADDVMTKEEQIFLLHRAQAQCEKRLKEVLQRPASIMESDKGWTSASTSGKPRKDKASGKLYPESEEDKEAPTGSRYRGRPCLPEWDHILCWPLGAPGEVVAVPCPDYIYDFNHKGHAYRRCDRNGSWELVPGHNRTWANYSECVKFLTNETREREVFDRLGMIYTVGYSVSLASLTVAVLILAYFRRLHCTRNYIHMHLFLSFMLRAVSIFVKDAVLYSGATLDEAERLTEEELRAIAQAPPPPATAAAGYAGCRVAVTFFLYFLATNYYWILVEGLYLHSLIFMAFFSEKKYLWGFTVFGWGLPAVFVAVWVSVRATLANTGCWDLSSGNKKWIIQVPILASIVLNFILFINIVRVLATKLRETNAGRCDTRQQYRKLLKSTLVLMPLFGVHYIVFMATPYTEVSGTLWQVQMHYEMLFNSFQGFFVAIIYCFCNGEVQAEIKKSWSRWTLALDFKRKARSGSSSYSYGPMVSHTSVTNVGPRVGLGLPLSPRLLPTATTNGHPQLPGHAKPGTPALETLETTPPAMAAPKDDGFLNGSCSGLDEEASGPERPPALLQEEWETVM

Molecular target: PTH/PTHrP receptor (P1R), wild-type, full-length (human) (UniProt Q03431)
Test: radioligand competition on HKRK-B28 cells expressing P1R

Binder	binding
SVSEIQLMHNLGKHLNSMERVEWLRKKLQDVHNY (C-terminal amide) [PTH(1-34) ([Tyr^34]hPTH(1-34)amide)]	binds
SVSEIALMHNLGKHLNSMERVEWLRKKLQDVHNY (C-terminal amide) [[Ala^6]PTH(1-34)]	binds
SVSEIQLMHALGKHLNSMERVEWLRKKLQDVHNY (C-terminal amide) [[Ala^10]PTH(1-34)]	binds
SVSEIALMHALGKHLNSMERVEWLRKKLQDVHNY (C-terminal amide) [[Ala^6,10]PTH(1-34)]	binds
